# The list shows a part of the results.
# By UniProt entry, the sequences of proteins in these tests, tags left out. Where a name states a change or a piece, a line headed by the entry shows the natural chain unless it says otherwise.
# UniProt Q9NZT2: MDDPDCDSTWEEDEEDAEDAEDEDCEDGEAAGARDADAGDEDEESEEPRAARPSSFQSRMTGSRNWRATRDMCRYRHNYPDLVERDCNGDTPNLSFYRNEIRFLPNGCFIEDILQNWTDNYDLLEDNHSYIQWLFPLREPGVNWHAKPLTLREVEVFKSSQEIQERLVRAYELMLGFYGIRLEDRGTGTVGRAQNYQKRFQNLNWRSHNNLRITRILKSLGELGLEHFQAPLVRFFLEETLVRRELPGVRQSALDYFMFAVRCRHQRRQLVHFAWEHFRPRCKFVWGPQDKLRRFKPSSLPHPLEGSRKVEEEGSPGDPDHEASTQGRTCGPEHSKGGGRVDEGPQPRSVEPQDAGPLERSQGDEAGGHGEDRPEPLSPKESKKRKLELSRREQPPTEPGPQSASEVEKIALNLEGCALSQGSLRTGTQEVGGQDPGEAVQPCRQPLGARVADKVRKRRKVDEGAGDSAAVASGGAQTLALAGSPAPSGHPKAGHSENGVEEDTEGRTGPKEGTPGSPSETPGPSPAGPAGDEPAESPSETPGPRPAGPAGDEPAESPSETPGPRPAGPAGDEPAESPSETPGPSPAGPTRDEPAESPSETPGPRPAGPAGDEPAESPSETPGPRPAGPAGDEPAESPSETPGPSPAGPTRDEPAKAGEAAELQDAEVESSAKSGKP
# UniProt O95989: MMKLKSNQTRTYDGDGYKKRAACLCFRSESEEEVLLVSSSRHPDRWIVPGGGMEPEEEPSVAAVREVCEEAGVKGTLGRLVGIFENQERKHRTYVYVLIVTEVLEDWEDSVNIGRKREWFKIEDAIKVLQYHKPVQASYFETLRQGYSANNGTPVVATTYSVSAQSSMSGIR
# UniProt Q9NPF4: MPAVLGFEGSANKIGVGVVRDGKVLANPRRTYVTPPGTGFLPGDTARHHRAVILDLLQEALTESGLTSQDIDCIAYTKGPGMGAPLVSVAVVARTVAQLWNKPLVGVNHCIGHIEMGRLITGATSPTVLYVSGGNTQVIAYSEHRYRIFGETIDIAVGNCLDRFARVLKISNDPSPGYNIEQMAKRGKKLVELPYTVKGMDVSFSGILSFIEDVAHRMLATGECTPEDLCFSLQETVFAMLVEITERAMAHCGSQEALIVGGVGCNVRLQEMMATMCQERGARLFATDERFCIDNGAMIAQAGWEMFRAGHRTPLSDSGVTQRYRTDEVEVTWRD
# UniProt Q9UKX7: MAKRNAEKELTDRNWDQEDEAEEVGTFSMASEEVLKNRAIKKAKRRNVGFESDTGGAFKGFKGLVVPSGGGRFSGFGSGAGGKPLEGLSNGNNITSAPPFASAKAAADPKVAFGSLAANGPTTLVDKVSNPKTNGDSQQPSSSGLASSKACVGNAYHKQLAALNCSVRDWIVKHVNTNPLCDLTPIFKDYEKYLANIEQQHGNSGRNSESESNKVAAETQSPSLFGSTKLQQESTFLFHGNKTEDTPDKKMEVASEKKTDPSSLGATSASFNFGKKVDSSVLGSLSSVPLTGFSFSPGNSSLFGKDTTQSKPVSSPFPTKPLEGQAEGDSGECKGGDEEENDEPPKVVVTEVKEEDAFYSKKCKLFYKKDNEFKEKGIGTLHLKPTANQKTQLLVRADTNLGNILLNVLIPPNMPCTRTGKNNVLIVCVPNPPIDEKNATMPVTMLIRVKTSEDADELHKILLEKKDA
# UniProt A8MXV4: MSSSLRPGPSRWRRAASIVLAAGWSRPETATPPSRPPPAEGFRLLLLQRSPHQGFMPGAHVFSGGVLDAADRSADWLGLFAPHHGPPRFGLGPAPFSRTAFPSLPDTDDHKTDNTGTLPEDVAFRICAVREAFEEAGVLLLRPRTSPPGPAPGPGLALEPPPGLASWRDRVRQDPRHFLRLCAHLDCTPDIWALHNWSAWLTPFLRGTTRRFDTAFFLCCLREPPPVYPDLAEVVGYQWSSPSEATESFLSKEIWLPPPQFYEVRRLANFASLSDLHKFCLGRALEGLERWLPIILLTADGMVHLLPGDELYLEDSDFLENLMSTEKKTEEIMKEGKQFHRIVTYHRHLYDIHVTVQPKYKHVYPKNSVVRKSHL
# UniProt Q96HP4: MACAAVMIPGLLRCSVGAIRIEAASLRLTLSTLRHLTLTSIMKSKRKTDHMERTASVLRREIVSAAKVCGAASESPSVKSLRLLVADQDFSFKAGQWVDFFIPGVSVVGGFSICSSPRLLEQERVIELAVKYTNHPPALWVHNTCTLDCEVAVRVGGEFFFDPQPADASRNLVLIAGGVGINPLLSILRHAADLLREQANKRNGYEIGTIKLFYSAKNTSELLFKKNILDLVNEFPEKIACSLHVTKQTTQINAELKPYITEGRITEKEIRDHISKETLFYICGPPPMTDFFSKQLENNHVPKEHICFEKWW
# UniProt P22059, whole entry, looked up: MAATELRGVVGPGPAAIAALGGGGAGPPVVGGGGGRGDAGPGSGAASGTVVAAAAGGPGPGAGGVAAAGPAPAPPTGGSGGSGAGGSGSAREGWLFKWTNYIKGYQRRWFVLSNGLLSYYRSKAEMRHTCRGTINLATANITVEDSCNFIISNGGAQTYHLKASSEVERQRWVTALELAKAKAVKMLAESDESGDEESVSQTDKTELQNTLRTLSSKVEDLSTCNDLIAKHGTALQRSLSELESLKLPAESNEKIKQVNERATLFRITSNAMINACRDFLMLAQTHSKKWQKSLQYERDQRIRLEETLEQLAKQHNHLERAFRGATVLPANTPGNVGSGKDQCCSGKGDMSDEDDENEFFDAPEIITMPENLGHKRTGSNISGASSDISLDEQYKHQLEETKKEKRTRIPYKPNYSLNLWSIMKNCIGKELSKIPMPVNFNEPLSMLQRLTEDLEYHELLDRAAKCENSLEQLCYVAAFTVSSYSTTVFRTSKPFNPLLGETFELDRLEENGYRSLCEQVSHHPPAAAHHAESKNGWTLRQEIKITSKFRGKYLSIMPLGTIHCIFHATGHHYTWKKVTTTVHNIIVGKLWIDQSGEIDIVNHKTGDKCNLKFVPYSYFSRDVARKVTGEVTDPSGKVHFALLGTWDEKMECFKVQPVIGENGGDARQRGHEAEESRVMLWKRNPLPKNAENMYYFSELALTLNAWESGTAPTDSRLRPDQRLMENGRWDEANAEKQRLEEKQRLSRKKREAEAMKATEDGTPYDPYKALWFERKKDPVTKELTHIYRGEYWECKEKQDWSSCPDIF
# UniProt P0C025: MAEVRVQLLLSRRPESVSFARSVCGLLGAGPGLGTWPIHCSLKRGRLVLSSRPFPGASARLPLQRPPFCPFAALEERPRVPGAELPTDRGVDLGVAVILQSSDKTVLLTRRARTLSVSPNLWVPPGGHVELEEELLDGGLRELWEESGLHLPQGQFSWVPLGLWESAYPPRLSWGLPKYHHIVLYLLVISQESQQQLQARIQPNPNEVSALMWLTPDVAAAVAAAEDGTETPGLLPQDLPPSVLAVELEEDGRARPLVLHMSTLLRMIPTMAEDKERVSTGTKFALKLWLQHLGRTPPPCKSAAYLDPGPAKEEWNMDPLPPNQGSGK
# UniProt Q8N6M0: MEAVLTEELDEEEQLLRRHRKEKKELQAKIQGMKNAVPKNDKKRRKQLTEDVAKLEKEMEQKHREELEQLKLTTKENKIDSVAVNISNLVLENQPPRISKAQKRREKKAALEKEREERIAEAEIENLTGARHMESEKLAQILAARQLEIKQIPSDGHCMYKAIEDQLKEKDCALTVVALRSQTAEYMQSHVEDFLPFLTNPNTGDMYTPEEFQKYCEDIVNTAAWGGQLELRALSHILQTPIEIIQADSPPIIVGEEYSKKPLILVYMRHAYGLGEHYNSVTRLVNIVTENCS
# UniProt Q7Z3B4: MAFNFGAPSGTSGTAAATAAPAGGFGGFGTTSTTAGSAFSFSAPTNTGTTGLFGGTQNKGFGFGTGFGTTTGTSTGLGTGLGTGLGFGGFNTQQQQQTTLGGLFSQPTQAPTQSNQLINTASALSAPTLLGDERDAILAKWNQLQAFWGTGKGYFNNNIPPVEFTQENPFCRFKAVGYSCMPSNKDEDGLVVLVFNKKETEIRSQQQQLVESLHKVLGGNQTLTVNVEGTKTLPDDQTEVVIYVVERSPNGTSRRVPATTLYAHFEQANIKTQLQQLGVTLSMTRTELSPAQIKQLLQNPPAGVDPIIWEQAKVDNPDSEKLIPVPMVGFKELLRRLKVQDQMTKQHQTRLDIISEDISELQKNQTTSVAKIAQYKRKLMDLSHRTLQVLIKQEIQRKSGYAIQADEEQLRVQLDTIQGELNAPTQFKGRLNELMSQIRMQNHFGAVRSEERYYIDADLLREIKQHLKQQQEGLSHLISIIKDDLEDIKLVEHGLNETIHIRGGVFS
# UniProt Q96BN8, whole entry, looked up: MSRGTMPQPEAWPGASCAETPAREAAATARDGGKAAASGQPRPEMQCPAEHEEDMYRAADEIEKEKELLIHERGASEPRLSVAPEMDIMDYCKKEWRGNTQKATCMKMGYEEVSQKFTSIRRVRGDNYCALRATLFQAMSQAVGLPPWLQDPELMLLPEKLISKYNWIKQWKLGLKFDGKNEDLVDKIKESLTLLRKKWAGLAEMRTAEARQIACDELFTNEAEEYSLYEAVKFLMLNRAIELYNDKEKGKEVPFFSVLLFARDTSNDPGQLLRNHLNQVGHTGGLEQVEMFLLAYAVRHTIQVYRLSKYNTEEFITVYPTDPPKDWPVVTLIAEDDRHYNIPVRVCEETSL
# UniProt Q9NZJ9: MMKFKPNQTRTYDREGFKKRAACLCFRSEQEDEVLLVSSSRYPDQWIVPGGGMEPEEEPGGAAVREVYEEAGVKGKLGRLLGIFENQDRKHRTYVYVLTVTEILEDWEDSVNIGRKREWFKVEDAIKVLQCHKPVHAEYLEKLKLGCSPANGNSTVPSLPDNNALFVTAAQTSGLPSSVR
# UniProt Q96P11: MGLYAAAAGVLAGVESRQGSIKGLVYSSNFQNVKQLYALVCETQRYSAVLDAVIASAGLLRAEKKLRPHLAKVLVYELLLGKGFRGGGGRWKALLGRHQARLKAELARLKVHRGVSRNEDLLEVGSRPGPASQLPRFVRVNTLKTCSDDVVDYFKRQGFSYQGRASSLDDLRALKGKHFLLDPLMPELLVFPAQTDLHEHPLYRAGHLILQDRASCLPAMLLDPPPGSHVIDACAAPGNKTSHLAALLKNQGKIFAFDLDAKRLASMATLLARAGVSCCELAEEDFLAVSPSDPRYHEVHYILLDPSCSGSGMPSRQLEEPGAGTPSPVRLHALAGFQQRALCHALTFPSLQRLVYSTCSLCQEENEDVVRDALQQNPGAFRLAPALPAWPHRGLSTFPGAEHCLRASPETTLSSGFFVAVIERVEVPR
# UniProt O60502: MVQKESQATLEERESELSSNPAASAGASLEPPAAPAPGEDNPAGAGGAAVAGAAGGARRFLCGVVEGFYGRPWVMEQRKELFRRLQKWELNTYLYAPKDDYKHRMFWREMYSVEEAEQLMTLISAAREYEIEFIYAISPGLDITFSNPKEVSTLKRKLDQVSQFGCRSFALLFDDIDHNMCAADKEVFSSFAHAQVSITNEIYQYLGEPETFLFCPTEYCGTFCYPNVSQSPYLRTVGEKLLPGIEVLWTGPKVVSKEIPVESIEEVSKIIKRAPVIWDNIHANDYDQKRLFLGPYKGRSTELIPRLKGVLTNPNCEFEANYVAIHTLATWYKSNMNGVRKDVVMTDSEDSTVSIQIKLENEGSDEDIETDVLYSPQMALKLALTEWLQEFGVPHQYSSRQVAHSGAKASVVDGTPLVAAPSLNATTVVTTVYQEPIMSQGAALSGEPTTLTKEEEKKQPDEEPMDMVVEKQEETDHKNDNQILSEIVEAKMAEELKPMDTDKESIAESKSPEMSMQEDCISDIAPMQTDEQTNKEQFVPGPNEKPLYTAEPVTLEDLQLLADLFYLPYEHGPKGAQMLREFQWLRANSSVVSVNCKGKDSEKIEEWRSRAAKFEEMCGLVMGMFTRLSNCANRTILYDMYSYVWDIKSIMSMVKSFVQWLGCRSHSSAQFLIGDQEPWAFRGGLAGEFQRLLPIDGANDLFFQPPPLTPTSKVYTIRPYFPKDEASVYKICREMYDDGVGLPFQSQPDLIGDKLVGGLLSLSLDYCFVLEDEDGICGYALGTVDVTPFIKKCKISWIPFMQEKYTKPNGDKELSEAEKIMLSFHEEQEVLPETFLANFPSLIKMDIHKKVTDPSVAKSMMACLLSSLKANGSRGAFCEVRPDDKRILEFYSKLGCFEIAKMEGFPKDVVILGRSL
# UniProt Q9NXX6: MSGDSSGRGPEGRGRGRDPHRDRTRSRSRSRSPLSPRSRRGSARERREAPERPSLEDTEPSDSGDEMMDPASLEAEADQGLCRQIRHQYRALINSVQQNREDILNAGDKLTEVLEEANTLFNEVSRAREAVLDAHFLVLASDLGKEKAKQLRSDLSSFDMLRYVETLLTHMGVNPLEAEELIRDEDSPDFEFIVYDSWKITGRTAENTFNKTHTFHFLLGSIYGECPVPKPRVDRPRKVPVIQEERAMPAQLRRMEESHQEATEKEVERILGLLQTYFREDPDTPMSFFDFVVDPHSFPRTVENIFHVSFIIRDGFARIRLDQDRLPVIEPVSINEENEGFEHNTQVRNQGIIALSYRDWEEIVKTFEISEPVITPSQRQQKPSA
# What was measured:
# Assay in all cases: log2 fold change, soluble protein after heating vs DMSO (PISA); higher = thermal stabilisation; K562 cells, 10 uM, 30 min; active = over 0.2 and 3.5 SD of the protein, either way, in both replicates (recomputed)
# erlotinib = compound: C#Cc1cccc(Nc2ncnc3cc(OCCOC)c(OCCOC)cc23)c1 [erlotinib]
# Outline: (§1)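 K562 cells at 2×10^6 cells/mL were treated for 30 min with 10 μM compound, and aliquots were heated for 3 min over 48°C-58°C before pooling. Extraction used PBS with 0.5% NP-40 at 4°C, and soluble protein was the supernatant after 21,000xg for 90 min, measured by TMTpro 16plex LC-MS/MS with channel sums equalised. Thermal stability values, relative to control samples and from duplicates, are log2 fold changes.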
# [1] = compound: C/C(=N\NC(=O)C1=CC(=CC=C1)S(=O)(=O)N2CCOCC2)/C3=C(C=CC(=C3)Cl)O
# Outline: as §1
# [2] = compound: C1=CC(=C(C=C1Cl)C2=NC3=NC=CN=C3C(=N2)NC4=CC=NC=C4)F
# Outline: as §1
# [3] = compound: C1=CC(=CC=C1C2=NC3=C(N2)C=C(C=C3)C(=O)N)OC4=CC=C(C=C4)Cl
# Outline: as §1
# [4] = compound: C1=CC2=C(C=CC(=C2)/C=C\3/C(=O)NC(=NCC4=CC=CS4)S3)N=C1
# Outline: as §1
# [5] = compound: C1=CC2=NC=CN=C2C=C1/C=C/3\C(=O)NC(=O)S3
# Outline: as §1
# [6] = compound: C1=CC=C(C=C1)C2=NC(=C(N2)C3=CC=NC=C3)C4=CC(=C(C=C4)Cl)O
# Outline: as §1
# [7] = compound: C1=CC=C2C(=C1)C3=NNC4=CC=CC(=C43)C2=O
# Outline: as §1
# [8] = compound: C1CCN(C1)C(=O)NC2=CC=CC(=C2)NC3=NC=C(C(=N3)NCCC4=CN=CN4)Br
# Outline: as §1
# [9] = compound: C1CN(CCC1(CC2=CC=C(C=C2)Cl)N)C3=NC=NC4=C3C=CN4
# Outline: as §1
Target,log2 fold change (erlotinib),log2 fold change [1],log2 fold change [2],log2 fold change [3],log2 fold change [4],log2 fold change [5],log2 fold change [6],log2 fold change [7],log2 fold change [8],log2 fold change [9]
OGFR (UniProt Q9NZT2),inactive: 0.009,inactive: 0.207,inactive: -0.011,inactive: 0.107,inactive: 0.131,inactive: -0.157,inactive: 0.027,inactive: -0.085,inactive: 0.028,inactive: -0.132
NUDT3 (UniProt O95989),inactive: -0.06,inactive: 0.056,inactive: 0.007,inactive: -0.013,inactive: 0.028,inactive: -0.005,inactive: -0.043,inactive: -0.011,inactive: -0.048,inactive: 0.051
OSGEP (UniProt Q9NPF4),inactive: 0.018,inactive: 0.021,inactive: 0.02,inactive: -0.016,inactive: 0.015,inactive: 0.005,inactive: 0.006,inactive: 0.014,inactive: 0,inactive: 0.016
NUP58 (UniProt Q9BVL2),inactive: -0.024,inactive: 0.033,inactive: -0.015,inactive: -0.023,inactive: 0.067,inactive: 0.01,inactive: -0.076,inactive: -0.039,inactive: 0.009,inactive: 0.009
NUP50 (UniProt Q9UKX7),inactive: -0.002,inactive: -0.007,inactive: -0.011,inactive: -0.01,inactive: 0.013,inactive: 0.002,inactive: -0.021,inactive: -0.023,inactive: 0.028,inactive: 0.071
OTUD7B (UniProt Q6GQQ9),inactive: 0.121,inactive: 0.129,inactive: 0.09,inactive: -0.088,inactive: 0.162,inactive: -0.144,inactive: 0.079,inactive: -0.148,inactive: -0.208,inactive: 0.014
NSMCE2 (UniProt Q96MF7),inactive: -0.076,inactive: 0.012,inactive: -0.078,inactive: 0.009,inactive: 0.023,inactive: -0.096,inactive: 0.04,inactive: -0.058,inactive: -0.001,inactive: 0.008
NUDT19 (UniProt A8MXV4),inactive: -0.031,inactive: 0.024,inactive: -0.009,inactive: -0.012,inactive: 0.035,inactive: 0.015,inactive: -0.002,inactive: -0.023,inactive: -0.038,inactive: 0.032
NT5C3A (UniProt Q9H0P0),inactive: 0.045,inactive: -0.025,inactive: -0.105,inactive: 0.054,inactive: 0.016,inactive: -0.035,inactive: -0.057,inactive: 0.068,inactive: -0.026,inactive: -0.231
NUCB2 (UniProt P80303),inactive: -0.021,inactive: -0.011,inactive: 0.026,inactive: 0.007,inactive: 0.011,inactive: 0.047,inactive: -0.051,inactive: -0.001,inactive: -0.017,inactive: 0.031
NT5DC2 isoform 2 (UniProt Q9H857),inactive: -0.051,inactive: -0.009,inactive: 0.07,inactive: 0.01,inactive: 0.042,inactive: 0.205,inactive: 0.02,inactive: 0.038,inactive: 0.013,inactive: 0.02
OXNAD1 (UniProt Q96HP4),inactive: -0.006,inactive: -0.001,inactive: 0.067,inactive: 0.003,inactive: 0.001,inactive: -0.029,inactive: -0.019,inactive: -0.026,inactive: -0.007,inactive: 0.028
OCIAD1 (UniProt D6RDK6),inactive: 0.095,inactive: -0.114,inactive: 0.017,inactive: -0.099,inactive: 0.2,inactive: 0.148,inactive: -0.252,inactive: -0.167,inactive: 0.19,inactive: 0.009
ORC3 isoform 2 (UniProt Q9UBD5),inactive: 0.134,inactive: -0.068,inactive: -0.024,inactive: -0.021,inactive: 0.214,inactive: 0.042,inactive: 0.013,inactive: 0.072,inactive: -0.013,inactive: 0.07
OSBP (UniProt P22059),inactive: -0.059,inactive: 0.111,inactive: 0.063,inactive: 0.109,inactive: -0.009,inactive: 0.019,inactive: -0.027,inactive: -0.042,inactive: -0.001,inactive: 0.013
ODR4 (UniProt Q5SWX8),inactive: 0.046,inactive: -0.018,inactive: 0.015,inactive: -0.004,inactive: 0.094,inactive: 0.019,inactive: 0.048,inactive: 0.012,inactive: -0.051,inactive: 0.059
NUDT17 (UniProt P0C025),inactive: -0.099,inactive: 0.098,inactive: -0.04,inactive: 0.111,inactive: -0.058,inactive: -0.186,inactive: 0.1,inactive: -0.066,inactive: -0.058,inactive: -0.053
NT5DC3 (UniProt Q86UY8),inactive: 0.001,inactive: -0.027,inactive: 0.055,inactive: -0.031,inactive: 0,inactive: 0.052,inactive: 0.004,inactive: -0.042,inactive: 0.005,inactive: 0.002
OIP5 (UniProt O43482),inactive: -0.015,inactive: 0.001,inactive: -0.048,inactive: 0.014,inactive: 0.063,inactive: 0.035,inactive: -0.068,inactive: -0.045,inactive: -0.02,inactive: 0.043
OTUD4 (UniProt Q01804),inactive: -0.032,inactive: -0.035,inactive: -0.137,inactive: 0.042,inactive: -0.033,inactive: -0.025,inactive: 0,inactive: 0.038,inactive: -0.011,inactive: 0.04
OTUD6B (UniProt Q8N6M0),inactive: 0.053,inactive: 0.117,inactive: -0.103,inactive: 0.019,inactive: 0.142,inactive: 0.032,inactive: -0.001,inactive: 0.051,inactive: -0.014,inactive: -0.055
NUP54 (UniProt Q7Z3B4),inactive: 0.093,inactive: 0.077,inactive: 0.018,inactive: -0.03,inactive: 0.057,inactive: 0.015,inactive: 0.033,inactive: 0.035,inactive: -0.006,inactive: -0.021
OTULIN (UniProt Q96BN8),inactive: -0.023,inactive: 0.054,inactive: 0.091,inactive: -0.143,inactive: 0.066,inactive: 0.06,inactive: -0.027,inactive: 0.039,inactive: -0.042,inactive: -0.086
NUDT16 (UniProt Q96DE0),inactive: 0.081,inactive: 0,inactive: 0.111,inactive: 0.01,inactive: -0.034,inactive: -0.004,inactive: 0.014,inactive: 0.026,inactive: -0.085,inactive: 0.081
NUDT4 (UniProt Q9NZJ9),inactive: 0.046,inactive: 0.083,inactive: 0.021,inactive: -0.013,inactive: -0.021,inactive: -0.022,inactive: 0.008,inactive: -0.011,inactive: 0.003,inactive: -0.13
NSUN5 isoform 2 (UniProt Q96P11),inactive: -0.027,inactive: 0.121,inactive: -0.051,inactive: 0.029,inactive: -0.053,inactive: -0.069,inactive: -0.148,inactive: 0.114,inactive: 0,inactive: 0.065
NUDT16L1 (UniProt Q9BRJ7),inactive: -0.042,inactive: 0.041,inactive: 0.003,inactive: 0.024,inactive: 0.007,inactive: 0.049,inactive: 0.014,inactive: -0.01,inactive: 0.022,inactive: -0.005
OGA (UniProt O60502),inactive: 0.001,inactive: 0.024,inactive: 0.046,inactive: 0.033,inactive: 0.032,inactive: -0.009,inactive: -0.033,inactive: -0.018,inactive: -0.016,inactive: 0.004
NUDT1 (UniProt P36639),inactive: 0.164,inactive: -0.018,inactive: 0.135,inactive: -0.068,inactive: 0,inactive: -0.032,inactive: 0.055,inactive: 0.187,inactive: -0.009,active: 1.01
NSMCE4A (UniProt Q9NXX6),inactive: -0.044,inactive: 0.028,inactive: -0.002,inactive: 0.072,inactive: 0.182,inactive: -0.138,inactive: -0.031,inactive: -0.192,inactive: 0.056,inactive: 0.117

# 2 entries from above, reformatted:
Target | log2 fold change (erlotinib) | log2 fold change [1] | log2 fold change [2] | log2 fold change [3] | log2 fold change [4] | log2 fold change [5] | log2 fold change [6] | log2 fold change [7] | log2 fold change [8] | log2 fold change [9]
NUP50 (UniProt Q9UKX7) | inactive: -0.002 | inactive: -0.007 | inactive: -0.011 | inactive: -0.01 | inactive: 0.013 | inactive: 0.002 | inactive: -0.021 | inactive: -0.023 | inactive: 0.028 | inactive: 0.071
NT5C3A (UniProt Q9H0P0) | inactive: 0.045 | inactive: -0.025 | inactive: -0.105 | inactive: 0.054 | inactive: 0.016 | inactive: -0.035 | inactive: -0.057 | inactive: 0.068 | inactive: -0.026 | inactive: -0.231
